Drawing on PMC10770036, “Novel dual inhibitors of PARP and HDAC induce intratumoral STING-mediated antitumor immunity in triple-negative breast cancer” (Cell Death & Disease, 2024), this text covers IC50 for one molecule.

The structures appear in SMILES notation.

In assay [1] the test system is MDA-MB-231 cells. Nature of the assay: MTT cell viability assay, MDA-MB-231. Particulars: Homo sapiens, MDA-MB-231, 72 h, read-out: IC50 MDA-MB-231.
The subject of assay [2] is MDA-MB-468 cells. Nature of the assay: MTT cell viability assay, MDA-MB-468. Particulars: Homo sapiens, MDA-MB-468, 72 h, read-out: IC50 MDA-MB-468.
Assay [3] deals with MDA-MB-436 cells. Nature of the assay: MTT cell viability assay, MDA-MB-436. Conditions: Homo sapiens, MDA-MB-436, 72 h, read-out: IC50 MDA-MB-436.
The subject of assay [4] is MCF-7 cells. Nature of the assay: MTT cell viability assay, MCF-7. Conditions: Homo sapiens, MCF7, 72 h, read-out: IC50 MCF-7.
Assay [5] concerns MCF-10A cells. Briefly: MTT cell viability assay, MCF-10A. Conditions: Homo sapiens, 72 h, read-out: IC50 MCF-10A.

As to `O=C(CCCCCCC(=O)Nc1ccccc1)NO` [Vorinostat, vorinostat, reference compound], the IC50 in assay [1] worked out at 2.59 ± 0.27 µM; in assay [2] it was 3.36 ± 1.21 µM; in assay [3], 4.29 ± 1.25 µM; in assay [4], 0.98 ± 0.32 µM; in assay [5], 6.4 ± 2.72 µM.
